Measured values reported in article PMC9559323.
Results are given in words; binding and its absence hold for the method and conditions named. Binding seen in cells or lysates may run through a third protein. Binding can be weak; no strength is given. Where a sequence is shown, tags or fusion partners need not be part of it.

B1: endogenous active Bcr related (ABR) protein (protein, UniProt Q12979 1-859)
chain: MEPLSHRGLPRLSWIDTLYSNFSYGTDEYDGEGNEEQKGPPEGSETMPYIDESPTMSPQLSARSQGGGDGVSPTPPEGLAPGVEAGKGLEMRKLVLSGFLASEEIYINQLEALLLPMKPLKATATTSQPVLTIQQIETIFYKIQDIYEIHKEFYDNLCPKVQQWDSQVTMGHLFQKLASQLGVYKAFVDNYKVALETAEKCSQSNNQFQKISEELKVKGPKDSKDSHTSVTMEALLYKPIDRVTRSTLVLHDLLKHTPVDHPDYPLLQDALRISQNFLSSINEDIDPRRTAVTTPKGETRQLVKDGFLVEVSESSRKLRHVFLFTDVLLCAKLKKTSAGKHQQYDCKWYIPLADLVFPSPEESEASPQVHPFPDHELEDMKMKISALKSEIQKEKANKGQSRAIERLKKKMFENEFLLLLNSPTIPFRIHNRNGKSYLFLLSSDYERSEWREAIQKLQKKDLQAFVLSSVELQVLTGSCFKLRTVHNIPVTSNKDDDESPGLYGFLHVIVHSAKGFKQSANLYCTLEVDSFGYFVSKAKTRVFRDTAEPKWDEEFEIELEGSQSLRILCYEKCYDKTKVNKDNNEIVDKIMGKGQIQLDPQTVETKNWHTDVIEMNGIKVEFSMKFTSRDMSLKRTPSKKQTGVFGVKISVVTKRERSKVPYIVRQCVEEVEKRGIEEVGIYRISGVATDIQALKAVFDANNKDILLMLSDMDINAIAGTLKLYFRELPEPLLTDRLYPAFMEGIALSDPAAKENCMMHLLRSLPDPNLITFLFLLEHLKRVAEKEPINKMSLHNLATVFGPTLLRPSEVESKAHLTSAADIWSHDVMAQVQVLLYYLQHPPISFAELKRNTLYFSTDV
B2: HA-tagged full-length (FL) human ABR (protein, UniProt Q12979 1-859)
chain: B1 chain

What was measured:
[1] = molecular target: translocated EspHwt (SBP-tagged EspH) (enteropathogenic Escherichia coli (EPEC)); experiment: pull-down; HeLa (or Caco-2BBe) cells, untransfected or transfected with HA-tagged ABR constructs, infected with EPEC strains; SBP-tagged translocated EspH precipitated with StAv agarose beads; co-precipitated ABR detected by immunoblot (anti-ABR or anti-HA)
[2] = molecular target: EspHwt-eGFP (enteropathogenic Escherichia coli (EPEC)); experiment: co-IP; HeLa cells co-transfected with eGFP constructs and HA-tagged ABR; lysates (10 mM Tris pH 7.4, 150 mM NaCl, 0.5% NP-40) incubated with GFP-Trap agarose beads 4 hrs at 4°C; immunoblot with anti-eGFP and anti-HA

Binder | binding [1] | binding [2]
B1 | binds | –
B2 | binds | binds
